Data as given in PubChem BioAssay AID504774 (Drosophila RNAi Screening Center, 2011)

- Screen: 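Genes required for cells to withstand methyl methanesulphonate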 (primary screen)
- Cells: Drosophila Kc167 cells
- Reagents: long dsRNA against Drosophila genes, about 0.25 µg dsRNA per well
- Duration: about 6 days: 3 days knock-down, then 3 days with or without MMS
- Challenge: methyl methanesulphonate 0.004% (w/v) for 3 days after knock-down
- Read-out: 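Viability in wells given MMS, read as ATP luminescence, normalised by quantiles plate by plate and averaged across replicates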
- Direction: mean viability with MMS: higher = more surviving cells after MMS
In all, the deposit lists about 23,000 reagents; this is an unselected part of those that have a named target and a result. 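Values are quantile-normalised luminescence on an arbitrary scale; higher means more cells surviving MMS.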 Names joined by + are all predicted targets of the reagent. Not all columns of the deposit are shown.

{"predicted target":"Cpr47Eg (Cuticular protein 47Eg)","DRSC id":"DRSC07330","mean viability with MMS":3.50e6}
{"predicted target":"CG15333","DRSC id":"DRSC18016","mean viability with MMS":3.52e6}
{"predicted target":"CG15333","DRSC id":"DRSC18153","mean viability with MMS":3.60e6}
{"predicted target":"Obp18a (Odorant-binding protein 18a)","DRSC id":"DRSC19736","mean viability with MMS":3.56e6}
{"predicted target":"ng3 (new glue 3)","DRSC id":"DRSC18804","mean viability with MMS":3.48e6}
{"predicted target":"Est-Q (Esterase Q)","DRSC id":"DRSC11835","mean viability with MMS":3.51e6}
{"predicted target":"Listericin","DRSC id":"DRSC07334","mean viability with MMS":3.57e6}
{"predicted target":"CG15747","DRSC id":"DRSC19713","mean viability with MMS":3.27e6}
{"predicted target":"Burs (Bursicon)","DRSC id":"DRSC14595","mean viability with MMS":3.54e6}
{"predicted target":"Acp53Ea (Accessory gland protein 53Ea)","DRSC id":"DRSC05916","mean viability with MMS":3.64e6}
{"predicted target":"Muc11A (Mucin 11A)","DRSC id":"DRSC19498","mean viability with MMS":3.64e6}
{"predicted target":"CG14907 + Mettl4","DRSC id":"DRSC15026","mean viability with MMS":3.61e6}
{"predicted target":"CG14907 + Mettl4","DRSC id":"DRSC15027","mean viability with MMS":3.66e6}
{"predicted target":"CG13218","DRSC id":"DRSC06340","mean viability with MMS":3.48e6}
{"predicted target":"Duba (Deubiquitinating enzyme A)","DRSC id":"DRSC10582","mean viability with MMS":3.49e6}
{"predicted target":"MED16 (Mediator complex subunit 16)","DRSC id":"DRSC04506","mean viability with MMS":3.37e6}
{"predicted target":"Art4 (Arginine methyltransferase 4)","DRSC id":"DRSC15779","mean viability with MMS":3.41e6}
{"predicted target":"tmod (tropomodulin)","DRSC id":"DRSC13993","mean viability with MMS":3.65e6}
{"predicted target":"tmod (tropomodulin)","DRSC id":"DRSC14314","mean viability with MMS":3.53e6}
{"predicted target":"tmod (tropomodulin)","DRSC id":"DRSC15076","mean viability with MMS":3.52e6}
{"predicted target":"tmod (tropomodulin)","DRSC id":"DRSC17062","mean viability with MMS":3.53e6}
{"predicted target":"TwdlT (TweedleT)","DRSC id":"DRSC16677","mean viability with MMS":3.73e6}
{"predicted target":"TwdlT (TweedleT)","DRSC id":"DRSC21540","mean viability with MMS":3.48e6}
{"predicted target":"CG34315 + Orc3","DRSC id":"DRSC07642","mean viability with MMS":3.22e6}
{"predicted target":"SoYb","DRSC id":"DRSC02901","mean viability with MMS":3.65e6}
{"predicted target":"asRNA:Eig63F-2 + Eip63F-1","DRSC id":"DRSC21446","mean viability with MMS":3.58e6}
{"predicted target":"Taf6 (TBP-associated factor 6)","DRSC id":"DRSC11299","mean viability with MMS":3.36e6}
{"predicted target":"Gyc32E (Guanylyl cyclase at 32E)","DRSC id":"DRSC01154","mean viability with MMS":3.57e6}
{"predicted target":"CG32036","DRSC id":"DRSC10362","mean viability with MMS":3.40e6}
{"predicted target":"CG5611","DRSC id":"DRSC15843","mean viability with MMS":3.92e6}
{"predicted target":"CG4238","DRSC id":"DRSC00090","mean viability with MMS":3.46e6}
{"predicted target":"CG4238","DRSC id":"DRSC00644","mean viability with MMS":3.51e6}
{"predicted target":"CG34435","DRSC id":"DRSC18086","mean viability with MMS":3.59e6}
{"predicted target":"CG18814","DRSC id":"DRSC10347","mean viability with MMS":3.57e6}
{"predicted target":"Cyp6t1 (Cytochrome P450 6t1)","DRSC id":"DRSC20564","mean viability with MMS":3.74e6}

In a second layout: 5 of the entries above
SoYb [DRSC02901]
- mean viability with MMS: 3.65e6

asRNA:Eig63F-2 + Eip63F-1 [DRSC21446]
- mean viability with MMS: 3.58e6

Taf6 (TBP-associated factor 6) [DRSC11299]
- mean viability with MMS: 3.36e6

Gyc32E (Guanylyl cyclase at 32E) [DRSC01154]
- mean viability with MMS: 3.57e6

CG32036 [DRSC10362]
- mean viability with MMS: 3.40e6
